Source: publication PMC13534531
No constants are given. Whether binding was seen depends on the method and setting. In cells and extracts the contact can be indirect. These calls come from enrichment with a bait or labelling near it, and not all partners need be listed.

Protein sequences, listed by entry. Tags and fused reporters are not part of them.
UniProt P62814: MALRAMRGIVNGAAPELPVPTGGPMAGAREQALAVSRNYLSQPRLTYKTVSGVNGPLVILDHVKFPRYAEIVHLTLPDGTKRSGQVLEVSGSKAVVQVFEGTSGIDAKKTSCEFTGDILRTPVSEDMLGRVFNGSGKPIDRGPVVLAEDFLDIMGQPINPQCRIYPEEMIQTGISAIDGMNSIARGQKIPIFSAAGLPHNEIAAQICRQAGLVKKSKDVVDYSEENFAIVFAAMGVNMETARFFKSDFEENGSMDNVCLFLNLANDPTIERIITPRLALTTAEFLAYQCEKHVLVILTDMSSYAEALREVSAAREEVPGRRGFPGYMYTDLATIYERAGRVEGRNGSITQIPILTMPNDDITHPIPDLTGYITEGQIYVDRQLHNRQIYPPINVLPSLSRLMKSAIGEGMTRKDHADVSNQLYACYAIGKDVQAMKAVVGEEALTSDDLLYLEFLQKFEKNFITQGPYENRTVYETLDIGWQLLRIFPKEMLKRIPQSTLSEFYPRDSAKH
UniProt Q6PNC0: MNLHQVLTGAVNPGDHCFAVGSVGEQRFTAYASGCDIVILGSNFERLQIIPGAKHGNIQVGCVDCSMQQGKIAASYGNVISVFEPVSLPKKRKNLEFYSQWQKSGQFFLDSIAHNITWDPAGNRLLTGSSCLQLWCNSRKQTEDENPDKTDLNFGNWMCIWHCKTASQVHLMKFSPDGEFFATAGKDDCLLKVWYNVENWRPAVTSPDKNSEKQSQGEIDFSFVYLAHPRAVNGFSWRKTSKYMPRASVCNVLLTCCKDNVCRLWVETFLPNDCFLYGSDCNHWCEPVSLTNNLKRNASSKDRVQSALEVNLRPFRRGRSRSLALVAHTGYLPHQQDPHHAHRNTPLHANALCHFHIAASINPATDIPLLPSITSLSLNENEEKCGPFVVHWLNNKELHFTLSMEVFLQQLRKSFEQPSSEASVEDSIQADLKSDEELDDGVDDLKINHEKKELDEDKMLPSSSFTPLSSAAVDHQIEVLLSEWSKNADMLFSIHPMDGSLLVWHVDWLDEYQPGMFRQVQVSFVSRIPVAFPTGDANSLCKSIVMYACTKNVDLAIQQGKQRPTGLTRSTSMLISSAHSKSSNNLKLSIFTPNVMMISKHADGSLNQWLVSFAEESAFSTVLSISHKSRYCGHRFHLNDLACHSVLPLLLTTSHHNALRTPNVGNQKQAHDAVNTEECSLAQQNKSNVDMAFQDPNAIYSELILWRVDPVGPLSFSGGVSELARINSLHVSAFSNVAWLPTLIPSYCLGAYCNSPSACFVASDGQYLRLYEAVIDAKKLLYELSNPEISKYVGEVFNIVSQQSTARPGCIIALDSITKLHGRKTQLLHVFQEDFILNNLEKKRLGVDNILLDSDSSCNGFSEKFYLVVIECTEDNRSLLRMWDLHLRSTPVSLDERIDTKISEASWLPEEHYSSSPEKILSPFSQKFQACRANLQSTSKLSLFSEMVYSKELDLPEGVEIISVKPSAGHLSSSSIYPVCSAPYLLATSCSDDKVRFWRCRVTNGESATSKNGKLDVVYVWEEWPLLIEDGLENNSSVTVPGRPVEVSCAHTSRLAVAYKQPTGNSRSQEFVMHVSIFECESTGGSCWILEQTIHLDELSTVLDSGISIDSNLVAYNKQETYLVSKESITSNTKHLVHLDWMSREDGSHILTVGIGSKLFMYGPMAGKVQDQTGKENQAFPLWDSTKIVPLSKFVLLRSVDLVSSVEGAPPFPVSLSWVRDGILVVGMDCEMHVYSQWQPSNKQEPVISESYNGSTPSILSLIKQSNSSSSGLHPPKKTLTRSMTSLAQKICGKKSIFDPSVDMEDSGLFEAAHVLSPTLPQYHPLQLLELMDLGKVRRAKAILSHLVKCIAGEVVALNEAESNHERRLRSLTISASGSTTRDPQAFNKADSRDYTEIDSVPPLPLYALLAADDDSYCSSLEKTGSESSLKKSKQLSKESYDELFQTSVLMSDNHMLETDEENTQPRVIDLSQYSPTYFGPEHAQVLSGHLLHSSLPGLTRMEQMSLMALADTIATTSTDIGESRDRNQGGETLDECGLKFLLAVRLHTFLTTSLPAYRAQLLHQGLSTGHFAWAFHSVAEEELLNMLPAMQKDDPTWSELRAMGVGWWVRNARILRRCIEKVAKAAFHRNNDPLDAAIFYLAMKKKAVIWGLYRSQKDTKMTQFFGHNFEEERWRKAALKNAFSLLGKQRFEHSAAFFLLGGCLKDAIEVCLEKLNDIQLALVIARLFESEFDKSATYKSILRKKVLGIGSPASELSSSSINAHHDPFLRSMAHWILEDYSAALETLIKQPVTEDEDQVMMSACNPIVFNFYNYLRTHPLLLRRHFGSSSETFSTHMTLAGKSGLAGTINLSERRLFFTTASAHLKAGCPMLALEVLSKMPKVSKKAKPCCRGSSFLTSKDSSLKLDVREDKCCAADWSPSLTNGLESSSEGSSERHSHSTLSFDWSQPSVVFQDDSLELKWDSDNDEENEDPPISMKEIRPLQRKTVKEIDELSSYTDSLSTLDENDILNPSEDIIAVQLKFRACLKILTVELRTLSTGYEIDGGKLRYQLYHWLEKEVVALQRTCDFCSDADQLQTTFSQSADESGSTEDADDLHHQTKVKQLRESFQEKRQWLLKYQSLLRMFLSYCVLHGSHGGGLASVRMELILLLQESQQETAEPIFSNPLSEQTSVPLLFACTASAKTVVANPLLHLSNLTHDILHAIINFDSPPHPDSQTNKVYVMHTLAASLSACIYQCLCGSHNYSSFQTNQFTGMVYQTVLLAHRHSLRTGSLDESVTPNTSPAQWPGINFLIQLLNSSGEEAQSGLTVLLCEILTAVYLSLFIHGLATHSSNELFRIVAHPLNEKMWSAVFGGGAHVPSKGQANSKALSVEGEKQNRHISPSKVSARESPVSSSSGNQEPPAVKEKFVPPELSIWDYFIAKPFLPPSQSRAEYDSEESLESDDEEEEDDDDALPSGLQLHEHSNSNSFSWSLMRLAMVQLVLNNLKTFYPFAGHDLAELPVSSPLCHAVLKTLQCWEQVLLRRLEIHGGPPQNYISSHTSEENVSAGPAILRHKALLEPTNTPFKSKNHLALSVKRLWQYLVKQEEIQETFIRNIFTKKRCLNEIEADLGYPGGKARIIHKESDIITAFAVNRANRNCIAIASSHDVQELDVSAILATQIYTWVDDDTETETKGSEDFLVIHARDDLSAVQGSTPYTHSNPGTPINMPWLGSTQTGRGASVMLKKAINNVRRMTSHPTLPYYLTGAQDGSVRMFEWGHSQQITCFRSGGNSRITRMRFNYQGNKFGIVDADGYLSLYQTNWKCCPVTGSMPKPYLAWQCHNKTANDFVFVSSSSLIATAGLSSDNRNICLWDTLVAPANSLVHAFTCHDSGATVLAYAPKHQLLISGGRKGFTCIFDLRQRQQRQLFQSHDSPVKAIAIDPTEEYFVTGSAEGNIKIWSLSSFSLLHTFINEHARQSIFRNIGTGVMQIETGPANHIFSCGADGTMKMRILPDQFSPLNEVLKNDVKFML
UniProt Q3TDK6: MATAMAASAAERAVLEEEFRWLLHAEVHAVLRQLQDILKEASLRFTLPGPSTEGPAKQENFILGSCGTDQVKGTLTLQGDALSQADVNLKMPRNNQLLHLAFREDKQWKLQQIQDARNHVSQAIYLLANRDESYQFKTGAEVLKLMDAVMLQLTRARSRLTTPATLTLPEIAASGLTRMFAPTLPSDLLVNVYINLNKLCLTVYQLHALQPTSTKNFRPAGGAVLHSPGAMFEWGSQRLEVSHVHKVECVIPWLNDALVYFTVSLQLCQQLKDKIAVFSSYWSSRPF
UniProt Q920I9: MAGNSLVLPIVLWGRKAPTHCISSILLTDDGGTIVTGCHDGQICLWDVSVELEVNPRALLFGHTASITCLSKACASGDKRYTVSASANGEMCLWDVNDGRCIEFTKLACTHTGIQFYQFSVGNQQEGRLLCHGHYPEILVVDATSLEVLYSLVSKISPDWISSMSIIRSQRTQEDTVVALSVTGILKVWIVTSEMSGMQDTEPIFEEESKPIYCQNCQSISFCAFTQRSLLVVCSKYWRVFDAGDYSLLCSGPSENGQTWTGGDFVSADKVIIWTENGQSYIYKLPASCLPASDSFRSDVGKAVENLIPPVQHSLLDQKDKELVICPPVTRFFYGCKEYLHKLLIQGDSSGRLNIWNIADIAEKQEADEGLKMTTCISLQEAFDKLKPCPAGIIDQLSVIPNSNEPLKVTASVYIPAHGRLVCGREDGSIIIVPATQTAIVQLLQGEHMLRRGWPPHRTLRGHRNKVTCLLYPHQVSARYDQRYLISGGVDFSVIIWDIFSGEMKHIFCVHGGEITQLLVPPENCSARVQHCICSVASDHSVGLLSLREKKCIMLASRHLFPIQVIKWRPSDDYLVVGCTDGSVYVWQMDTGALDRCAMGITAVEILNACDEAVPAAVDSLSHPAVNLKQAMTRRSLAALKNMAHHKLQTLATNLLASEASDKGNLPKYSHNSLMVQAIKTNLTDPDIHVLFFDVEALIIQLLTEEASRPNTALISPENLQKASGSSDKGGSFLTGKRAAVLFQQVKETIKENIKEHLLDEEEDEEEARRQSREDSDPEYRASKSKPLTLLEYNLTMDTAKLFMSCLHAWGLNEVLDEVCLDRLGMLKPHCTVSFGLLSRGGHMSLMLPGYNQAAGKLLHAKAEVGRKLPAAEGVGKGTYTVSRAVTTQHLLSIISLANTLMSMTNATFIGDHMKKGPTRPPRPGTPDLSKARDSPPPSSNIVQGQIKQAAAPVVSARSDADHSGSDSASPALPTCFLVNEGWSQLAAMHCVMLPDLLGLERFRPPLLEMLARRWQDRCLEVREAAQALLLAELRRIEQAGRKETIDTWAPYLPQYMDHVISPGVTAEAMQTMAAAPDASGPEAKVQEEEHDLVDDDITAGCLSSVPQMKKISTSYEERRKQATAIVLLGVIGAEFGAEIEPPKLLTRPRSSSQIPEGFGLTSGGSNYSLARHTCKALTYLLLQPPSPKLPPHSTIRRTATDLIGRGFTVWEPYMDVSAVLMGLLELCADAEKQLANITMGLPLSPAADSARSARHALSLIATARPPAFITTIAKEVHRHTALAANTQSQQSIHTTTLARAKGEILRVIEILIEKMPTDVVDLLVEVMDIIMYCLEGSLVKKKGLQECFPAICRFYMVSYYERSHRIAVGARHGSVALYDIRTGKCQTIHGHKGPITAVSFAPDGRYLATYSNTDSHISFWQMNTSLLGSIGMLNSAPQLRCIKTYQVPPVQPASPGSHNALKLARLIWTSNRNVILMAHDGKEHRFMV

What follows are substances tested against HA-V1B2 (HA-tagged V-ATPase V1 domain subunit B2, Atp6v1b2) (mouse) (UniProt P62814) (assay: affinity purification with mass spectrometry; anti-HA magnetic beads, HA-V1B2 as bait; lysates of MEFs expressing HA-V1B2 against control; label-free LC-MS (DDA, MaxQuant)).

binding, binds:
Dmxl1 (mRAVE subunit) (from UniProt Q6PNC0 1-3013)
Rogdi (mRAVE subunit) (from UniProt Q3TDK6 1-287)
Wdr7 (mRAVE subunit) (from UniProt Q920I9 1-1489)
